In article PMC10140934 (Molecules, 2023):
Strings that start with PEPTIDE1 are HELM notation: dots part the residues, brackets hold end groups and non-standard residues.

Experiment: peptide synthesis
Details: whole synthesis

PEPTIDE1{V.A.P.G.V.G}$$$$V2.0
purity (crude or final not stated): 98.8%
